Here are results for one molecule from patent US20230110875A1 (US Dept. of Health and Human Services, published 2023).

Results are given in words; binding and its absence hold for the method and conditions named. Some binding calls cover weakened binding; strength is not graded here. Sequences can lack the tags named with a protein.

The target in experiment [1] is T1, human CD276-AP fusion protein (human) (UniProt Q5ZPR3).
T1 sequence (looked up): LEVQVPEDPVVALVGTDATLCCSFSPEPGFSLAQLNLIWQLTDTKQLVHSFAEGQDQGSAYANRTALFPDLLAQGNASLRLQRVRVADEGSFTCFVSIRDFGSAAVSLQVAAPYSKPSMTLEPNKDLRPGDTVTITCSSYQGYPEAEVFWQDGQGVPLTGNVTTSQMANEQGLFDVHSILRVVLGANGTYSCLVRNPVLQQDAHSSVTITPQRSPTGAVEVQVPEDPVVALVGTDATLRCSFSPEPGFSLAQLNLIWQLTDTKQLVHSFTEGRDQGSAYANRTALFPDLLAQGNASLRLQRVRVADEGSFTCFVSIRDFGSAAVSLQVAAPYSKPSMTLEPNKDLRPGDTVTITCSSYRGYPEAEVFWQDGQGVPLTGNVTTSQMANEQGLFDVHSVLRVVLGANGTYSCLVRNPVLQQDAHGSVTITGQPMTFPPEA
Briefly: ELISA, human CD276-AP fusion protein coated at 2 ug/ml, serially diluted scFv-Fc culture medium, HRP goat anti-human IgG, OD 450 nm.

Experiment [2] concerns the target T1, human CD276-AP fusion protein (human). In words: ELISA, human CD276-AP coated, scFv-Fc in culture medium serially diluted. For orientation: An ELISA detects its analyte on a solid surface through an enzyme-linked reagent.

B1: Clone CD276.1 (m851) scFv-Fc fusion protein (Fc fusion)
scFv: QVQLQQSGAEVKKPGSSVKVSCKASGGTFSSYAISWVRQAPGQGLEWMGGIIPILGIANYAQKFQGRVTITADESTSTAYMELSSLRSEDTAVYYCARGGAGGSGSYYPLIWGQGTTVTVSSGGGGSGGGGSGGGGSEIVLTQSPATLSLSPGERATLSCGASQSVSSSYLAWYQQKPGQAPRLLIYDASSRATGIPARFSGSGSGTDFTLTISSLEPEDFAVYYCQQRSSWPPTWTFGQGTKLEIKR
notes: also called m851 (CD276.1); not shown: Fc-Avi tag from modified pSecTag vector
Consider B1, for which the binding result in experiment [1] and in experiment [2] was “binds” in each case.
